# Reference: paper PMC2504488
# The chains behind the UniProt entries cited, without tags or fusion partners.
# UniProt O22467: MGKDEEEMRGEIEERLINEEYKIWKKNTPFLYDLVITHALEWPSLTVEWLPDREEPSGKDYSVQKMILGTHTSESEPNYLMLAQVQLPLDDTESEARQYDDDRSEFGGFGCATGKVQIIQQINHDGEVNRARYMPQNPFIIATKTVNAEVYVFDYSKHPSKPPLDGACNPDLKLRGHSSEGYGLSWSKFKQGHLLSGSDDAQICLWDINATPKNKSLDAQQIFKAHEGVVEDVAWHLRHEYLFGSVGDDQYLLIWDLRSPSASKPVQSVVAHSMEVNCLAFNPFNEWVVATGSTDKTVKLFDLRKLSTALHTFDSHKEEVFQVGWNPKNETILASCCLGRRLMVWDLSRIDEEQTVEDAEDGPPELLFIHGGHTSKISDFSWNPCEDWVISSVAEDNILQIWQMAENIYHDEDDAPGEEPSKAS
# No constants are given. Whether binding was seen depends on the method and setting. In cells and extracts the contact can be indirect. Some results given as binding are weak or reduced against the parent protein; the word gives no strength. For some assays here: Where a sequence is shown, tags or fusion partners need not be part of it.
# Legend:
# [1] = biological target: GST-MSI1 fusion protein (Arabidopsis MULTICOPYSUPPRESSOR OF IRA1) (Arabidopsis) (UniProt O22467); test: pull-down; GST-MSI1 immobilized on glutathione agarose beads, incubated with [35S]methionine-labeled RBR1 from reticulocyte lysate; six washes with NETN buffer (100 mM NaCl, 1 mM EDTA, 20 mM Tris pH 8.0, 0.5% NP-40); autoradiography; only the target purified
# [2] = biological target: YN-MSI1 (MSI1 fused to the N-terminal part of YFP) (Arabidopsis) (UniProt O22467); test: split reporter; BiFC with YN and YC fusions transiently coexpressed in N. benthamiana leaf epidermis; 25 °C for 24 h; confocal microscopy of YFP
Binder,binding [1],binding [2]
"RBR1 (RETINOBLASTOMA RELATED 1), full-length, labeled with [35S] methionine (protein, UniProt Q9LKZ3 1-1013, [35S] methionine label) MEEVQPPVTPPIEPNGKRSEASLLDICEKVLSLDGSTCDEALKLFTETKRILSASMSNIGSGTREEVERFWFAFILYSVKRLSVRKEADGLSVSGDNEFNLCQILRALKLNIVDFFKELPQFVVKAGSVLGELYGADWENRLQAKEVQANFVHLSLLSKYYKRGFREFFLTYDANAEKNSANSSTYLLDSYRFGWLLFLALRNHAFSRFKDLVTCSNGVVSILAILIIHVPCRFRNFSIQDSSRFVKKGDKGVDLVASLCKIYDASEDELRIVIDKANNLVETILKKKPSPASECQTDKLDNIDPDGLTYFEDLLEETSISTSLITLEKDYYDGKGELDERVFINEEDSLLGSGSLSAGAVNITGVKRKIDALSSPARTFISPLSPHKSPAAKTNGISGATKLAATPVSTAMTTAKWLRTVISPLLPKPSPGLEHFLKSCDRDITNDVTRRAHIILEAIFPNSSLGAQCGGGSLQAVDLMDDIWAEQRRLEACKLYYRVLEAMCKAEAQILHANNLNSLLTNERFHRCMLACSAELVLATHKTITMLFPAVLERTGITAFDLSKVIESFIRHEDSLPRELRRHLNSLEERLLESMVWEKGSSMYNSLIVARPSLALEINQLGLLAEPMPSLDAIAALINFSDGANHASSVQKHETCPGQNGGIRSPKRLCTDYRSILVERNSFTSPVKDRLLALGNVKSKMLPPPLQSAFASPTRPNPGGGGETCAETGINIFFTKINKLAAVRINGMVERLQLSQQIRESVYCFFQHVLAQRTSLLFSRHIDQIILCCFYGVAKISQMSLTFREIIYNYRKQPQCKPLVFRSVYVDALQCRRQGRIGPDHVDIITFYNEIFIPAVKPLLVELGPVRNDRAVEANNKPEGQCPGSPKVSVFPSVPDMSPKKVSAVHNVYVSPLRGSKMDALISHSTKSYYACVGESTHAYQSPSKDLSAINNRLNNSSSNRKRTLNFDAEAGMVSDSMVANSLNLQNQNQNQNGSDASSSGGAAPLKTEPTDS",binds,–
"YC-RBR1 (RBR1 fused to the C-terminal part of YFP) (protein, UniProt Q9LKZ3 1-1013) MEEVQPPVTPPIEPNGKRSEASLLDICEKVLSLDGSTCDEALKLFTETKRILSASMSNIGSGTREEVERFWFAFILYSVKRLSVRKEADGLSVSGDNEFNLCQILRALKLNIVDFFKELPQFVVKAGSVLGELYGADWENRLQAKEVQANFVHLSLLSKYYKRGFREFFLTYDANAEKNSANSSTYLLDSYRFGWLLFLALRNHAFSRFKDLVTCSNGVVSILAILIIHVPCRFRNFSIQDSSRFVKKGDKGVDLVASLCKIYDASEDELRIVIDKANNLVETILKKKPSPASECQTDKLDNIDPDGLTYFEDLLEETSISTSLITLEKDYYDGKGELDERVFINEEDSLLGSGSLSAGAVNITGVKRKIDALSSPARTFISPLSPHKSPAAKTNGISGATKLAATPVSTAMTTAKWLRTVISPLLPKPSPGLEHFLKSCDRDITNDVTRRAHIILEAIFPNSSLGAQCGGGSLQAVDLMDDIWAEQRRLEACKLYYRVLEAMCKAEAQILHANNLNSLLTNERFHRCMLACSAELVLATHKTITMLFPAVLERTGITAFDLSKVIESFIRHEDSLPRELRRHLNSLEERLLESMVWEKGSSMYNSLIVARPSLALEINQLGLLAEPMPSLDAIAALINFSDGANHASSVQKHETCPGQNGGIRSPKRLCTDYRSILVERNSFTSPVKDRLLALGNVKSKMLPPPLQSAFASPTRPNPGGGGETCAETGINIFFTKINKLAAVRINGMVERLQLSQQIRESVYCFFQHVLAQRTSLLFSRHIDQIILCCFYGVAKISQMSLTFREIIYNYRKQPQCKPLVFRSVYVDALQCRRQGRIGPDHVDIITFYNEIFIPAVKPLLVELGPVRNDRAVEANNKPEGQCPGSPKVSVFPSVPDMSPKKVSAVHNVYVSPLRGSKMDALISHSTKSYYACVGESTHAYQSPSKDLSAINNRLNNSSSNRKRTLNFDAEAGMVSDSMVANSLNLQNQNQNQNGSDASSSGGAAPLKTEPTDS",–,binds
